Source: PubChem BioAssay AID743454 (Peter MacCallum Cancer Centre, 2014)

Screen: 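Knock-downs lowering viability or raising caspase 3/7 activity in vorinostat-treated resistant cells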 (primary screen)
Cell system: human HCT116-VR colon cancer cells, selected for vorinostat resistance
Knock-down reagent: siRNA pool against human genes, 40 nM siRNA pool
Duration: vorinostat for 24 h, read-out about 72 h after transfection
Treatment: vorinostat at 2.5 µM final
Measurement: 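Two measures, CellTiter-Fluor viability and luminescent caspase 3/7 activity, each as fold change against same-plate mock wells, mean of duplicates, then screen-wide robust z-score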
Reading the numbers: viability robust z-score: higher = more viable cells than screen typical; caspase robust z-score: higher = more caspase 3/7 activity than screen typical
Hit rule: 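Hits are knock-downs in viability class RV1/RV2 or caspase class CA1/CA2, excluding ones that killed cells in the no-drug cell-count arm; hits then retested with single siRNAs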
In all, the deposit lists about 18,000 reagents; shown is a part drawn at random. Over the whole deposit, 450 (2.5%) are marked active. 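Single biological run; no consistent viability z cut-off exists, so the class columns, not z-scores, define the calls.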 Entries without a mark were called inactive. No sequences are given here.

gene	viability hit class	caspase hit class	viability robust z-score	caspase robust z-score
CDC45 (cell division cycle 45)	no change	no change	0.09	1.36
SUDS3 (SIN3A corepressor complex component SDS3)	no change	no change	-0.29	-0.38
OR10P1 (olfactory receptor family 10 subfamily P member 1)	no change	no change	-0.57	-0.82
MRPL9 (mitochondrial ribosomal protein L9)	no change	no change	-1.19	-1
DYNLT2 (dynein light chain Tctex-type 2)	no change	no change	0.45	0.11
LIPE (lipase E, hormone sensitive type)	no change	no change	0.03	1.12
RDH5 (retinol dehydrogenase 5)	no change	no change	0.31	0.06
INPP5K (inositol polyphosphate-5-phosphatase K)	no change (active)	CA1 (caspase activation)	-0.52	5.75
TNMD (tenomodulin)	no change	no change	-0.82	-0.98
MRPL35 (mitochondrial ribosomal protein L35)	no change	no change	0.62	-0.54
PPP1R36 (protein phosphatase 1 regulatory subunit 36)	no change	no change	-0.7	-0.38
TIMM10 (translocase of inner mitochondrial membrane 10)	no change	no change	0.48	0.04
GIP (gastric inhibitory polypeptide)	no change	no change	0.57	1.46
RASSF3 (Ras association domain family member 3)	no change	no change	0.3	1
HROB (homologous recombination factor with OB-fold)	no change	no change	0.21	-0.18
CORO2A (coronin 2A)	no change	no change	-0.4	0.04
GRPEL1 (GrpE like 1, mitochondrial)	no change	no change	-0.78	0.52
XKRY (XK related, Y-linked (pseudogene))	no change	no change	0.03	4.22
FOSL2 (FOS like 2, AP-1 transcription factor subunit)	no change	no change	-0.5	2.63
FSD1 (fibronectin type III and SPRY domain containing 1)	no change	no change	0.44	-0.98
CHRNA2 (cholinergic receptor nicotinic alpha 2 subunit)	no change	no change	-0.62	-0.6
OGFRL1 (opioid growth factor receptor like 1)	no change	no change	0.02	1.91
POLR3B (RNA polymerase III subunit B)	no change	no change	-1.48	1.5
SNX9 (sorting nexin 9)	no change	no change	-1.77	0.55
GGT1 (gamma-glutamyltransferase 1)	no change	no change	0.24	1.51
POLR1E (RNA polymerase I subunit E)	no change	no change	0.25	1.52
ZNF491 (zinc finger protein 491)	no change	no change	0.86	-0.78
RPL7 (ribosomal protein L7)	no change	no change	-4.86	-0.64
CIMIP2A (ciliary microtubule inner protein 2A)	no change	no change	0.52	-0.97
TMEM186 (transmembrane protein 186)	no change	no change	-0.54	0.32
PCSK6 (proprotein convertase subtilisin/kexin type 6)	no change	no change	0.41	-0.14
PHACTR4 (phosphatase and actin regulator 4)	no change	no change	-1.9	-0.46
IL36R (interleukin 36 receptor)	no change	no change	0.9	-0.69
SHFL (shiftless antiviral inhibitor of ribosomal frameshifting)	no change	no change	-0.08	-0.71
COXFA4L2 (cytochrome c oxidase hypoxia associated subunit FA4L2)	no change	no change	1.32	-0.4
SERPINB13 (serpin family B member 13)	no change (active)	CA2 (caspase activation)	-2.27	5.72
PTTG1IP (PTTG1 interacting protein)	no change	no change	0.3	-0.66
LOC644006 (ring finger protein 4 pseudogene)	no change	no change	-0.2	0
RFPL4A (ret finger protein like 4A)	no change	no change	-0.05	1.84
ZNF429 (zinc finger protein 429)	no change	no change	1.28	0.7
SORBS2 (sorbin and SH3 domain containing 2)	no change	no change	0.27	-0.61
UTF1 (undifferentiated embryonic cell transcription factor 1)	no change	no change	-0.15	-0.92
RPRD1B (regulation of nuclear pre-mRNA domain containing 1B)	no change	no change	1.12	-0.25
BCAT1 (branched chain amino acid transaminase 1)	no change	no change	0.84	-0.68
RASIP1 (Ras interacting protein 1)	no change	no change	-3	4.83
DGAT1 (diacylglycerol O-acyltransferase 1)	no change	no change	1.12	1.29
UBIAD1 (UbiA prenyltransferase domain containing 1)	no change	no change	-0.1	0.57
ADRA2C (adrenoceptor alpha 2C)	RV2 (reduced viability) (active)	no change	-3.67	0.92
GAL3ST1 (galactose-3-O-sulfotransferase 1)	no change	no change	-0.34	1.1
ANO5 (anoctamin 5)	no change	no change	0.38	-0.84
SP4 (Sp4 transcription factor)	no change	no change	-0.65	-0.36
GPR61 (G protein-coupled receptor 61)	no change	no change	1.36	3.87
GP6 (glycoprotein VI platelet)	no change	no change	0.68	0.3
POC5 (POC5 centriolar protein)	no change	no change	-0.07	-1.04
YRDC (yrdC N6-threonylcarbamoyltransferase domain containing)	no change	no change	-0.83	2.45
EAF1 (ELL associated factor 1)	no change	no change	-1.43	1.09
ITGB1BP1 (integrin subunit beta 1 binding protein 1)	no change	no change	-0.64	-1.15
MLF2 (myeloid leukemia factor 2)	no change	no change	0.02	0.46
SH3BGRL3 (SH3 domain binding glutamate rich protein like 3)	no change	no change	-0.32	-0.05
SKIC8 (SKI8 subunit of superkiller complex)	no change	no change	-2.19	3.86
PMEL (premelanosome protein)	no change	no change	-0.08	-0.24
SCML2 (Scm polycomb group protein like 2)	no change	no change	-0.5	1.19
PHF11 (PHD finger protein 11)	no change	no change	0.32	0.01
CD200R1 (CD200 receptor 1)	no change	no change	-0.52	0.21
EIF4G1 (eukaryotic translation initiation factor 4 gamma 1)	no change	no change	-2.58	-1.7
TMBIM1 (transmembrane BAX inhibitor motif containing 1)	no change	no change	1.12	-0.71
PIP (prolactin induced protein)	no change	no change	-0.96	-0.46
NKAP (NFKB activating protein)	no change	no change	-1.06	-0.36
PPM1D (protein phosphatase, Mg2+/Mn2+ dependent 1D)	no change	no change	0.8	0.49
GPR12 (G protein-coupled receptor 12)	RV2 (reduced viability) (active)	no change	-3.11	1.35
RTP1 (receptor transporter protein 1)	no change	no change	2.27	-0.15
MAB21L2 (mab-21 like 2)	no change	no change	0.26	0.29
FLJ46838 (retired record)	no change	no change	0.42	1.92

Reformatted: 4 of the entries above.
{"gene":"EIF4G1 (eukaryotic translation initiation factor 4 gamma 1)","viability hit class":"no change","caspase hit class":"no change","viability robust z-score":-2.58,"caspase robust z-score":-1.7}
{"gene":"TMBIM1 (transmembrane BAX inhibitor motif containing 1)","viability hit class":"no change","caspase hit class":"no change","viability robust z-score":1.12,"caspase robust z-score":-0.71}
{"gene":"PIP (prolactin induced protein)","viability hit class":"no change","caspase hit class":"no change","viability robust z-score":-0.96,"caspase robust z-score":-0.46}
{"gene":"NKAP (NFKB activating protein)","viability hit class":"no change","caspase hit class":"no change","viability robust z-score":-1.06,"caspase robust z-score":-0.36}
